Test [1] concerns the target T1, ZEB1, endogenous (human (endogenous in U2OS)) (UniProt P37275).
T1 sequence: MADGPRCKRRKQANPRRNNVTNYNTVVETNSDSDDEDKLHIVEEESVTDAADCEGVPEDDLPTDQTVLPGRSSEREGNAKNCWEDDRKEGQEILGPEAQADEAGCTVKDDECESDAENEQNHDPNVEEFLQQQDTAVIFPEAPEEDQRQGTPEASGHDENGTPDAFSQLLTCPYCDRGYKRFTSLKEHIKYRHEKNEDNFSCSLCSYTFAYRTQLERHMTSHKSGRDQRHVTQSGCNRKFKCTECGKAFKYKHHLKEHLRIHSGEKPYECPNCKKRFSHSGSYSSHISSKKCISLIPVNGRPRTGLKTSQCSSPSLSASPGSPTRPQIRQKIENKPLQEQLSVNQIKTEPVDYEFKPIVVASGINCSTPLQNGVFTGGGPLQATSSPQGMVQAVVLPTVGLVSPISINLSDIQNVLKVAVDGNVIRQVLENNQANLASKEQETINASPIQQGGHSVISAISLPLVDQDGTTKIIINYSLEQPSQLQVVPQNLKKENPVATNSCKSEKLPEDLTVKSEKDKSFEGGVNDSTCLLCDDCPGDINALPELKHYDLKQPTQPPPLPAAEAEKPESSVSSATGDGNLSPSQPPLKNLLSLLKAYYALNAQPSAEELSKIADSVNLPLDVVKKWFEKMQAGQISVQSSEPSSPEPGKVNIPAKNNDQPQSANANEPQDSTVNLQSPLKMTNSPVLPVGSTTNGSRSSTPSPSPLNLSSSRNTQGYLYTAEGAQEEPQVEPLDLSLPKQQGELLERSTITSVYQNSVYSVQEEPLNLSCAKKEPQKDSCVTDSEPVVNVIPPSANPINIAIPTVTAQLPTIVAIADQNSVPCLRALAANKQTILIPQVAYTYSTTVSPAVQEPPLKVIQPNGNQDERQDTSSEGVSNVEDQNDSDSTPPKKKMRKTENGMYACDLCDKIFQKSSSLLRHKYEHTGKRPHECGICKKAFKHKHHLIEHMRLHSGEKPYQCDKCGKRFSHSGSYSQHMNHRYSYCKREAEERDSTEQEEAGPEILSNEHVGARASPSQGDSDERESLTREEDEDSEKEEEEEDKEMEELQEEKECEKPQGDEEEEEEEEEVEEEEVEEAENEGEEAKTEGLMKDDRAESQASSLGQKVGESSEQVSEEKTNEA
Briefly: co-IP.

Chains of the proteins cited; added tags and fusions are not shown.
UniProt Q12888: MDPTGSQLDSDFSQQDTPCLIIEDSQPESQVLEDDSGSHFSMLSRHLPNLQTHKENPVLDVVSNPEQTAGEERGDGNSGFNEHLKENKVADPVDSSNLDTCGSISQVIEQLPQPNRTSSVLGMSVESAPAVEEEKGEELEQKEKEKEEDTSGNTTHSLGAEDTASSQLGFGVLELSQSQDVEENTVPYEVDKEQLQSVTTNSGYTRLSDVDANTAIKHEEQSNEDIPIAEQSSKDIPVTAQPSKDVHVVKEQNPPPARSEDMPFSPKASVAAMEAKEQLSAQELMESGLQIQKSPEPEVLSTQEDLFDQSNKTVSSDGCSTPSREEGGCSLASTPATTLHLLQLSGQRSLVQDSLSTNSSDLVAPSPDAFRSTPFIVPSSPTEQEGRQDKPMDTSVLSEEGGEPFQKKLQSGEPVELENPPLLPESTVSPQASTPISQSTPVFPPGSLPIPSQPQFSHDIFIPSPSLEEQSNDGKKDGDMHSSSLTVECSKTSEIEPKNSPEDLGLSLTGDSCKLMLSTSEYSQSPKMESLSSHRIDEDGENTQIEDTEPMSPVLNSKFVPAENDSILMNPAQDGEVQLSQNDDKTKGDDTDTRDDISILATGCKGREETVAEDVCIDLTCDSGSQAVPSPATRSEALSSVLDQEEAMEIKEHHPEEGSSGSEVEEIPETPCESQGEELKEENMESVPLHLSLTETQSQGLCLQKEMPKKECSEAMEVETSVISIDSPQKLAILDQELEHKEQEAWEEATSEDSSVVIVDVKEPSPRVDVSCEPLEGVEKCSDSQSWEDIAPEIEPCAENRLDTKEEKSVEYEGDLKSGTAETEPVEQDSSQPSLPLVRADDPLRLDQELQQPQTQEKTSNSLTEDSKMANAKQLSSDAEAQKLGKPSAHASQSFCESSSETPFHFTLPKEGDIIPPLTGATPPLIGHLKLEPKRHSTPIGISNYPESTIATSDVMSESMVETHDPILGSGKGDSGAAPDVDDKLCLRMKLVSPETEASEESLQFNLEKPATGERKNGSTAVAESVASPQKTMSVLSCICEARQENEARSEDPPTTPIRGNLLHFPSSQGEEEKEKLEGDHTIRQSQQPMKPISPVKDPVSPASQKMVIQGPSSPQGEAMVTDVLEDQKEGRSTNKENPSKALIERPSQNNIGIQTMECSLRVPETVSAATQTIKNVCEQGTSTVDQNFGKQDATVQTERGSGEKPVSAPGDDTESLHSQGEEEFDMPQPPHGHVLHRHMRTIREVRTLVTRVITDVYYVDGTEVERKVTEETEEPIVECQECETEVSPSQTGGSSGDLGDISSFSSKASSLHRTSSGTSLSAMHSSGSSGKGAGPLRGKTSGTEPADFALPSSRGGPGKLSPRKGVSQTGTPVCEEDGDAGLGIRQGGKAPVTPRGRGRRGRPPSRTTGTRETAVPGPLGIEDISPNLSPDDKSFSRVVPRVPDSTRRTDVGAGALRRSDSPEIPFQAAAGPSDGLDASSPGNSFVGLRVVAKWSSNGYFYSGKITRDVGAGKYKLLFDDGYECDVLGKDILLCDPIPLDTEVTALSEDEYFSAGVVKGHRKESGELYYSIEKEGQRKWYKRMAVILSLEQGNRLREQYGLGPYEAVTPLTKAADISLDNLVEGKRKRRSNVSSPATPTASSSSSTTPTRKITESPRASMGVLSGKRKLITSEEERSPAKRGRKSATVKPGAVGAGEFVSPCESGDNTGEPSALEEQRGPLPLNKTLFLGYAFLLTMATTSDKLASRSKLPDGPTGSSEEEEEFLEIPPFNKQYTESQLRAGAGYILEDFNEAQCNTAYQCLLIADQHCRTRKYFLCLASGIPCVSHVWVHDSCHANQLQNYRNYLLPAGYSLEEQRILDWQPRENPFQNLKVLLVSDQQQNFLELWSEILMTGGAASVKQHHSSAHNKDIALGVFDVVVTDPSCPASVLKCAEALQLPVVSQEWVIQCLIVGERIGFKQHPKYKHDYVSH
UniProt Q13547: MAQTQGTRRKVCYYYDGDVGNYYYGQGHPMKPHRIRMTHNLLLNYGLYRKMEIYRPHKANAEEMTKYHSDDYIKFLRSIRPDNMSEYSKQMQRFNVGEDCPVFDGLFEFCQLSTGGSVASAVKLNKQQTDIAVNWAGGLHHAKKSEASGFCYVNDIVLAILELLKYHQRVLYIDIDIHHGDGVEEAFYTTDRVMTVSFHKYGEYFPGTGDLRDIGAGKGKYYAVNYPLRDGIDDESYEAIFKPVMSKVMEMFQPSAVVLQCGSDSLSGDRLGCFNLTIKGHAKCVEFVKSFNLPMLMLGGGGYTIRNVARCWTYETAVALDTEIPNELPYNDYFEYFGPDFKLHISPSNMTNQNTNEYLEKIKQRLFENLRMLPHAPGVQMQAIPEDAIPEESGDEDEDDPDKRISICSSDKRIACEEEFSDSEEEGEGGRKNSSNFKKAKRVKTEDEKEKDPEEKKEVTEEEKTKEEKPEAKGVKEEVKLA
UniProt Q92769: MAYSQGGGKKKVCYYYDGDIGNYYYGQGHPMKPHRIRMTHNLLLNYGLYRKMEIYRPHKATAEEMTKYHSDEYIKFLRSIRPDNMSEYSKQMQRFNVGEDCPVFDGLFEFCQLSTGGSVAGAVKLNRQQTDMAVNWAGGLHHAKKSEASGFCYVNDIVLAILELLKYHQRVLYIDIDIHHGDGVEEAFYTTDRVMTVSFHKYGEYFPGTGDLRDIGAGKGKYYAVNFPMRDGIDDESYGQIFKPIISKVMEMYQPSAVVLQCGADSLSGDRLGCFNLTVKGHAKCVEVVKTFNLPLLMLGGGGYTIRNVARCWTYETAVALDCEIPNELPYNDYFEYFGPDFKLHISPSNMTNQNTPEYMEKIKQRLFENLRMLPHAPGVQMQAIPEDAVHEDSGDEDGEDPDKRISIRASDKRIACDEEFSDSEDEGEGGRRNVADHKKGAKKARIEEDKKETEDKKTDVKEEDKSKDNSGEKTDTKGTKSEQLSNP

Test [2] addresses 53BP1, endogenous (human (endogenous in U2OS)) (UniProt Q12888). In words: co-IP.

No constants are given. Whether binding was seen depends on the method and setting. In cells and extracts the contact can be indirect. Some binding calls cover weakened binding; strength is not graded here.

For the substance “histone deacetylase 1, endogenous (from UniProt Q13547 1-482)”, the binding entry in test [1] and in test [2] was “binds” throughout.

“histone deacetylase 2, endogenous (from UniProt Q92769 1-488)”: the binding result in test [1] is reported as “binds”.

Consider “53BP1, endogenous (from UniProt Q12888 1-1972)”, for which the binding entry in test [1] is given as “binds”.

The record behind these values is doi:10.1101/2020.05.13.094391.
